# PubChem BioAssay AID743454 – Peter MacCallum Cancer Centre, 2014
# Screen: 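Genes whose loss kills vorinostat-resistant colon cancer cells under vorinostat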 (primary screen)
# System: human HCT116-VR colon cancer cells, selected for vorinostat resistance
# Reagent: siRNA pool against human genes, 40 nM siRNA pool
# Timing: vorinostat for 24 h, read-out about 72 h after transfection
# Challenge: vorinostat at 2.5 µM final
# Detection: 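Two measures, CellTiter-Fluor viability and luminescent caspase 3/7 activity, each as fold change against same-plate mock wells, mean of duplicates, then screen-wide robust z-score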
# Reading the numbers: viability robust z-score: higher = more viable cells than screen typical; caspase robust z-score: higher = more caspase 3/7 activity than screen typical
# Active means: 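Hits are knock-downs in viability class RV1/RV2 or caspase class CA1/CA2, excluding ones that killed cells in the no-drug cell-count arm; hits then retested with single siRNAs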
# Here is an unselected part of about 18,000 reagents. Over the whole deposit, 450 (2.5%) were called active. 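Single biological run; no consistent viability z cut-off exists, so the class columns, not z-scores, define the calls.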 A number with no mark means an inactive call. The numbers tell different reagents against one gene apart.
gene knocked down,reagent,viability hit class,caspase hit class,viability robust z-score,caspase robust z-score
SEPTIN4 (GeneID 5414),1,no change,no change,-0.57,3.25
SEPTIN4 (GeneID 5414),2,no change,no change,0.86,0
CPA4 (GeneID 51200),1,no change,no change,0.36,-0.76
TAF1L (GeneID 138474),1,no change,no change,-0.4,-0.67
CALN1 (GeneID 83698),1,no change,no change,-1.05,1.65
TMEM174 (GeneID 134288),1,no change,no change,0.4,-0.16
FAAP100 (GeneID 80233),1,no change,no change,-0.73,0.09
SPTBN4 (GeneID 57731),1,no change,no change,-0.11,2.68
CUEDC2 (GeneID 79004),1,no change,no change,1.29,-0.22
EPX (GeneID 8288),1,no change,no change,-0.14,-0.6
SDCCAG8 (GeneID 10806),1,no change,no change,0.01,-0.36
DONSON (GeneID 29980),1,no change,no change,-3.41,4.3
CERS4 (GeneID 79603),1,no change,no change,-0.24,0.65
SDR39U1 (GeneID 56948),1,no change,no change,-0.01,1.27
DMTN (GeneID 2039),1,no change,no change,0.86,-0.4
ZDHHC13 (GeneID 54503),1,no change,no change,-0.25,-1.06
C21orf91 (GeneID 54149),1,no change,no change,-0.36,-0.31
EVI5 (GeneID 7813),1,no change,no change,2.67,1.28
TARBP2 (GeneID 6895),1,no change,no change,1.82,0.96
DNAJB9 (GeneID 4189),1,no change,no change,0.29,1.6
CACFD1 (GeneID 11094),1,no change,no change,0.06,-0.59
HPSE2 (GeneID 60495),1,no change,no change,-0.68,-0.68
TRIM36 (GeneID 55521),1,no change,no change,1.09,0.54
CLEC4G (GeneID 339390),1,no change,no change,0.83,-0.6
ABCA10 (GeneID 10349),1,no change,no change,0.06,-0.46

5 entries from above, reformatted.
gene knocked down | reagent | viability hit class | caspase hit class | viability robust z-score | caspase robust z-score
SDR39U1 (GeneID 56948) | 1 | no change | no change | -0.01 | 1.27
DMTN (GeneID 2039) | 1 | no change | no change | 0.86 | -0.4
ZDHHC13 (GeneID 54503) | 1 | no change | no change | -0.25 | -1.06
C21orf91 (GeneID 54149) | 1 | no change | no change | -0.36 | -0.31
EVI5 (GeneID 7813) | 1 | no change | no change | 2.67 | 1.28

Additional results follow:
gene knocked down,reagent,viability hit class,caspase hit class,viability robust z-score,caspase robust z-score
OR5AS1 (GeneID 219447),1,no change,no change,0.94,-0.72
TBC1D5 (GeneID 9779),1,no change,no change,-0.75,-1.22
MAP3K7 (GeneID 6885),1,no change,no change,-0.6,3.5
FIGN (GeneID 55137),1,no change,no change,0.34,0.94
CYFIP1 (GeneID 23191),1,no change,no change,-0.11,0.03
AGO1 (GeneID 26523),1,no change,no change,0.38,0.4
TIMM23B (GeneID 100652748),1,no change,no change,-1.46,1.42
TCEAL5 (GeneID 340543),1,no change,no change,-0.4,0.16
BMP8A (GeneID 353500),1,no change,no change,0.07,1.4
PIDD1 (GeneID 55367),1,no change,no change,-0.18,1.86
DNMT1 (GeneID 1786),1,no change,no change,-0.08,3.1
THRA (GeneID 7067),1,no change,no change,0.9,-0.45
DTNA (GeneID 1837),1,no change,no change,-2.31,0.24
TACC2 (GeneID 10579),1,no change,no change,-0.44,-0.06
